# Source: the supplement of paper PMC8728848
# Some of the results follow.
# What was measured:
# Assay in all cases: glycan array binding signal (z-score within array); higher = stronger binding
# Details in all cases: glycan notation: IUPAC condensed, linker removed
# Glc(b1-6)Glc = molecular target: Glc(b1-6)Glc
# In short: (§1)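 The binding signal is a Z-score computed within each array and averaged over linkers. Arrays of the same protein sequence at different concentrations or buffers were also averaged together. Data originate from 3228 arrays in the Consortium for Functional Glycomics database, kept only where the protein sequence was available.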
# GlcA(b1-3)Gal = molecular target: GlcA(b1-3)Gal
# In short: as §1
# GlcA(b1-3)GlcNAc = molecular target: GlcA(b1-3)GlcNAc
# In short: as §1
# GlcA(b1-6)Gal = molecular target: GlcA(b1-6)Gal
# In short: as §1
# [1] = molecular target: GlcA3S(b1-3)Gal(b1-4)GlcNAc(b1-2)Man
# In short: as §1
# [2] = molecular target: GlcA3S(b1-3)Gal(b1-4)GlcNAc(b1-3)Gal(b1-4)Glc
# In short: as §1
# [3] = molecular target: GlcNAc(a1-3)Gal(b1-4)GlcNAc
# In short: as §1
# [4] = molecular target: GlcNAc(a1-4)Gal(b1-3)GlcNAc
# In short: as §1
# [5] = molecular target: GlcNAc(a1-4)Gal(b1-4)GalNAc
# In short: as §1
# [6] = molecular target: GlcNAc(a1-4)Gal(b1-4)GlcNAc
# In short: as §1
# [7] = molecular target: GlcNAc(a1-4)Gal(b1-4)GlcNAc(b1-3)Gal(b1-4)Glc
# In short: as §1
# [8] = molecular target: GlcNAc(a1-4)Gal(b1-4)GlcNAc(b1-3)Gal(b1-4)GlcNAc
# In short: as §1
# [9] = molecular target: GlcNAc(a1-4)Gal(b1-4)GlcNAc(b1-3)Gal(b1-4)GlcNAc(b1-3)Gal(b1-4)GlcNAc
# In short: as §1
# [10] = molecular target: GlcNAc(a1-4)Gal(b1-4)GlcNAc(b1-3)Gal(b1-4)[Fuc(a1-3)]GlcNAc(b1-3)Gal(b1-4)[Fuc(a1-3)]GlcNAc
# In short: as §1
# [11] = molecular target: GlcNAc(a1-6)Gal(b1-4)GlcNAc
# In short: as §1
# [12] = molecular target: GlcNAc(b1-2)Gal(b1-3)GalNAc
# In short: as §1
# [13] = molecular target: GlcNAc(b1-2)Man(a1-3)[GlcNAc(b1-2)Man(a1-6)]Man(b1-4)GlcNAc(b1-4)GlcNAc
# In short: as §1
# [14] = molecular target: GlcNAc(b1-2)Man(a1-3)[GlcNAc(b1-2)Man(a1-6)]Man(b1-4)GlcNAc(b1-4)[Fuc(a1-6)]GlcNAc
# In short: as §1
# [15] = molecular target: GlcNAc(b1-2)Man(a1-3)[GlcNAc(b1-4)][GlcNAc(b1-2)Man(a1-6)]Man(b1-4)GlcNAc(b1-4)GlcNAc
# In short: as §1
# [16] = molecular target: GlcNAc(b1-2)Man(a1-3)[GlcNAc(b1-4)][GlcNAc(b1-2)Man(a1-6)]Man(b1-4)GlcNAc(b1-4)[Fuc(a1-6)]GlcNAc
# In short: as §1
# [17] = molecular target: GlcNAc(b1-2)[GlcNAc(b1-4)]Man(a1-3)[GlcNAc(b1-2)Man(a1-6)]Man(b1-4)GlcNAc(b1-4)GlcNAc
# In short: as §1
# [18] = molecular target: GlcNAc(b1-2)[GlcNAc(b1-4)]Man(a1-3)[GlcNAc(b1-4)][GlcNAc(b1-2)Man(a1-6)]Man(b1-4)GlcNAc(b1-4)GlcNAc
# In short: as §1
# [19] = molecular target: GlcNAc(b1-2)[GlcNAc(b1-4)]Man(a1-3)[GlcNAc(b1-4)][GlcNAc(b1-2)[GlcNAc(b1-6)]Man(a1-6)]Man(b1-4)GlcNAc(b1-4)GlcNAc
# In short: as §1
# [20] = molecular target: GlcNAc(b1-2)[GlcNAc(b1-4)]Man(a1-3)[GlcNAc(b1-4)][GlcNAc(b1-2)[GlcNAc(b1-6)]Man(a1-6)]Man(b1-4)GlcNAc(b1-4)[Fuc(a1-6)]GlcNAc
# In short: as §1
# [21] = molecular target: GlcNAc(b1-2)[GlcNAc(b1-6)]Man(a1-6)[GlcNAc(b1-2)Man(a1-3)]Man(b1-4)GlcNAc(b1-4)GlcNAc
# In short: as §1
# [22] = molecular target: GlcNAc(b1-2)[GlcNAc(b1-6)]Man(a1-6)[GlcNAc(b1-2)Man(a1-3)]Man(b1-4)GlcNAc(b1-4)[Fuc(a1-6)]GlcNAc
# In short: as §1
# [23] = molecular target: GlcNAc(b1-2)[GlcNAc(b1-6)]Man(a1-6)[GlcNAc(b1-4)][GlcNAc(b1-2)Man(a1-3)]Man(b1-4)GlcNAc(b1-4)GlcNAc
# In short: as §1
# GlcNAc(b1-3)Fuc = molecular target: GlcNAc(b1-3)Fuc
# In short: as §1
# GlcNAc(b1-3)Gal = molecular target: GlcNAc(b1-3)Gal
# In short: as §1
# [24] = molecular target: GlcNAc(b1-3)Gal(b1-3)GalNAc
# In short: as §1
# GlcNAc(b1-3)Gal(b1-4)Glc = molecular target: GlcNAc(b1-3)Gal(b1-4)Glc
# In short: as §1
# [25] = molecular target: GlcNAc(b1-3)Gal(b1-4)GlcNAc
# In short: as §1
# [26] = molecular target: GlcNAc(b1-3)Gal(b1-4)GlcNAc(b1-2)Man(a1-3)[GlcNAc(b1-3)Gal(b1-4)GlcNAc(b1-2)Man(a1-6)]Man(b1-4)GlcNAc(b1-4)GlcNAc
# In short: as §1
# [27] = molecular target: GlcNAc(b1-3)Gal(b1-4)GlcNAc(b1-2)Man(a1-3)[GlcNAc(b1-3)Gal(b1-4)GlcNAc(b1-2)Man(a1-6)]Man(b1-4)GlcNAc(b1-4)[Fuc(a1-6)]GlcNAc
# In short: as §1
# [28] = molecular target: GlcNAc(b1-3)Gal(b1-4)GlcNAc(b1-2)[GlcNAc(b1-3)Gal(b1-4)GlcNAc(b1-6)]Man(a1-6)[GlcNAc(b1-3)Gal(b1-4)GlcNAc(b1-2)Man(a1-3)]Man(b1-4)GlcNAc(b1-4)GlcNAc
# In short: as §1
# [29] = molecular target: GlcNAc(b1-3)Gal(b1-4)GlcNAc(b1-3)Gal(b1-4)GlcNAc
# In short: as §1
# [30] = molecular target: GlcNAc(b1-3)Gal(b1-4)GlcNAc(b1-3)Gal(b1-4)GlcNAc(b1-2)Man(a1-3)[GlcNAc(b1-3)Gal(b1-4)GlcNAc(b1-3)Gal(b1-4)GlcNAc(b1-2)Man(a1-6)]Man(b1-4)GlcNAc(b1-4)GlcNAc
# In short: as §1
# [31] = molecular target: GlcNAc(b1-3)Gal(b1-4)GlcNAc(b1-3)Gal(b1-4)GlcNAc(b1-2)Man(a1-3)[GlcNAc(b1-3)Gal(b1-4)GlcNAc(b1-3)Gal(b1-4)GlcNAc(b1-2)Man(a1-6)]Man(b1-4)GlcNAc(b1-4)[Fuc(a1-6)]GlcNAc
# In short: as §1
# [32] = molecular target: GlcNAc(b1-3)Gal(b1-4)GlcNAc(b1-3)Gal(b1-4)GlcNAc(b1-2)[GlcNAc(b1-3)Gal(b1-4)GlcNAc(b1-3)Gal(b1-4)GlcNAc(b1-6)]Man(a1-6)[GlcNAc(b1-3)Gal(b1-4)GlcNAc(b1-3)Gal(b1-4)GlcNAc(b1-2)Man(a1-3)]Man(b1-4)GlcNAc(b1-4)[Fuc(a1-6)]GlcNAc
# In short: as §1
# [33] = molecular target: GlcNAc(b1-3)Gal(b1-4)GlcNAc(b1-3)Gal(b1-4)GlcNAc(b1-3)Gal(b1-4)GlcNAc(b1-2)Man(a1-3)[GlcNAc(b1-3)Gal(b1-4)GlcNAc(b1-3)Gal(b1-4)GlcNAc(b1-3)Gal(b1-4)GlcNAc(b1-2)Man(a1-6)]Man(b1-4)GlcNAc(b1-4)GlcNAc
# In short: as §1
# [34] = molecular target: GlcNAc(b1-3)Gal(b1-4)GlcNAc(b1-3)Gal(b1-4)GlcNAc(b1-3)Gal(b1-4)GlcNAc(b1-2)Man(a1-3)[GlcNAc(b1-3)Gal(b1-4)GlcNAc(b1-3)Gal(b1-4)GlcNAc(b1-3)Gal(b1-4)GlcNAc(b1-2)Man(a1-6)]Man(b1-4)GlcNAc(b1-4)[Fuc(a1-6)]GlcNAc
# In short: as §1
# [35] = molecular target: GlcNAc(b1-3)Gal(b1-4)GlcNAc(b1-3)Gal(b1-4)GlcNAc(b1-3)Gal(b1-4)GlcNAc(b1-2)[GlcNAc(b1-3)Gal(b1-4)GlcNAc(b1-3)Gal(b1-4)GlcNAc(b1-3)Gal(b1-4)GlcNAc(b1-6)]Man(a1-6)[GlcNAc(b1-3)Gal(b1-4)GlcNAc(b1-3)Gal(b1-4)GlcNAc(b1-3)Gal(b1-4)GlcNAc(b1-2)Man(a1-3)]Man(b1-4)GlcNAc(b1-4)[Fuc(a1-6)]GlcNAc
# In short: as §1
# [36] = molecular target: GlcNAc(b1-3)Gal(b1-4)GlcNAc(b1-3)Gal(b1-4)GlcNAc(b1-3)Gal(b1-4)GlcNAc(b1-3)Gal(b1-4)GlcNAc(b1-2)Man(a1-3)[GlcNAc(b1-3)Gal(b1-4)GlcNAc(b1-3)Gal(b1-4)GlcNAc(b1-3)Gal(b1-4)GlcNAc(b1-3)Gal(b1-4)GlcNAc(b1-2)Man(a1-6)]Man(b1-4)GlcNAc(b1-4)GlcNAc
# In short: as §1
# [37] = molecular target: GlcNAc(b1-3)Gal(b1-4)GlcNAc(b1-3)Gal(b1-4)GlcNAc(b1-3)Gal(b1-4)GlcNAc(b1-3)Gal(b1-4)GlcNAc(b1-2)Man(a1-3)[GlcNAc(b1-3)Gal(b1-4)GlcNAc(b1-3)Gal(b1-4)GlcNAc(b1-3)Gal(b1-4)GlcNAc(b1-3)Gal(b1-4)GlcNAc(b1-2)Man(a1-6)]Man(b1-4)GlcNAc(b1-4)[Fuc(a1-6)]GlcNAc
# In short: as §1
# [38] = molecular target: GlcNAc(b1-3)Gal(b1-4)GlcNAc(b1-3)Gal(b1-4)GlcNAc(b1-3)Gal(b1-4)GlcNAc(b1-3)Gal(b1-4)GlcNAc(b1-2)[GlcNAc(b1-3)Gal(b1-4)GlcNAc(b1-3)Gal(b1-4)GlcNAc(b1-3)Gal(b1-4)GlcNAc(b1-3)Gal(b1-4)GlcNAc(b1-6)]Man(a1-6)[GlcNAc(b1-3)Gal(b1-4)GlcNAc(b1-3)Gal(b1-4)GlcNAc(b1-3)Gal(b1-4)GlcNAc(b1-3)Gal(b1-4)GlcNAc(b1-2)Man(a1-3)]Man(b1-4)GlcNAc(b1-4)[Fuc(a1-6)]GlcNAc
# In short: as §1
binder,measurement,setting,value
CM2 (Cordyceps militaris) (protein) MEIAEQNVGKSCAIVNLIPPKEGSNIWTAKQVTIARNLPPNRGTGRHQIDWSFGPVKVTGYVDTTNWEIGVTVSIMGIDLGTVYGNLRDGVVLNVDLFLAKGQVRFYLKNGNEVWVHLSVEIRFDGKFEGDYKIITV,glycan array binding signal (z-score),Glc(b1-6)Glc,1.15
same,glycan array binding signal (z-score),GlcA(b1-3)Gal,-0.157
same,glycan array binding signal (z-score),GlcA(b1-3)GlcNAc,-0.388
same,glycan array binding signal (z-score),GlcA(b1-6)Gal,0.684
same,glycan array binding signal (z-score),[1],0.209
same,glycan array binding signal (z-score),[2],0.06
same,glycan array binding signal (z-score),[3],0.051
same,glycan array binding signal (z-score),[4],-0.72
same,glycan array binding signal (z-score),[5],-0.085
same,glycan array binding signal (z-score),[6],-0.93
same,glycan array binding signal (z-score),[7],-1.72
same,glycan array binding signal (z-score),[8],0.98
same,glycan array binding signal (z-score),[9],1.22
same,glycan array binding signal (z-score),[10],0.164
same,glycan array binding signal (z-score),[11],-1.59
same,glycan array binding signal (z-score),[12],-1.47
same,glycan array binding signal (z-score),[13],0.185
same,glycan array binding signal (z-score),[14],-0.909
same,glycan array binding signal (z-score),[15],-0.048
same,glycan array binding signal (z-score),[16],0.634
same,glycan array binding signal (z-score),[17],1.47
same,glycan array binding signal (z-score),[18],0.795
same,glycan array binding signal (z-score),[19],-1.09
same,glycan array binding signal (z-score),[20],-0.129
same,glycan array binding signal (z-score),[21],-0.182
same,glycan array binding signal (z-score),[22],-0.033
same,glycan array binding signal (z-score),[23],-1.38
same,glycan array binding signal (z-score),GlcNAc(b1-3)Fuc,1.55
same,glycan array binding signal (z-score),GlcNAc(b1-3)Gal,-1.29
same,glycan array binding signal (z-score),[24],0.202
same,glycan array binding signal (z-score),GlcNAc(b1-3)Gal(b1-4)Glc,0.644
same,glycan array binding signal (z-score),[25],0.373
same,glycan array binding signal (z-score),[26],0.096
same,glycan array binding signal (z-score),[27],2.3
same,glycan array binding signal (z-score),[28],-0.174
same,glycan array binding signal (z-score),[29],-1.06
same,glycan array binding signal (z-score),[30],0.188
same,glycan array binding signal (z-score),[31],0.25
same,glycan array binding signal (z-score),[32],3.55
same,glycan array binding signal (z-score),[33],-0.287
same,glycan array binding signal (z-score),[34],0.912
same,glycan array binding signal (z-score),[35],0.039
same,glycan array binding signal (z-score),[36],0.44
same,glycan array binding signal (z-score),[37],0.927
same,glycan array binding signal (z-score),[38],0.787

# Reprinted at random: 3 records from the list.
binder,measurement,setting,value
CM2 (Cordyceps militaris) (protein) MEIAEQNVGKSCAIVNLIPPKEGSNIWTAKQVTIARNLPPNRGTGRHQIDWSFGPVKVTGYVDTTNWEIGVTVSIMGIDLGTVYGNLRDGVVLNVDLFLAKGQVRFYLKNGNEVWVHLSVEIRFDGKFEGDYKIITV,glycan array binding signal (z-score),GlcA(b1-3)GlcNAc,-0.388
same,glycan array binding signal (z-score),Glc(b1-6)Glc,1.15
same,glycan array binding signal (z-score),[25],0.373
